This passage reports binding results from PMC6692485.

Protein sequences, listed by entry. Tags and fused reporters are not part of them.
UniProt O14980: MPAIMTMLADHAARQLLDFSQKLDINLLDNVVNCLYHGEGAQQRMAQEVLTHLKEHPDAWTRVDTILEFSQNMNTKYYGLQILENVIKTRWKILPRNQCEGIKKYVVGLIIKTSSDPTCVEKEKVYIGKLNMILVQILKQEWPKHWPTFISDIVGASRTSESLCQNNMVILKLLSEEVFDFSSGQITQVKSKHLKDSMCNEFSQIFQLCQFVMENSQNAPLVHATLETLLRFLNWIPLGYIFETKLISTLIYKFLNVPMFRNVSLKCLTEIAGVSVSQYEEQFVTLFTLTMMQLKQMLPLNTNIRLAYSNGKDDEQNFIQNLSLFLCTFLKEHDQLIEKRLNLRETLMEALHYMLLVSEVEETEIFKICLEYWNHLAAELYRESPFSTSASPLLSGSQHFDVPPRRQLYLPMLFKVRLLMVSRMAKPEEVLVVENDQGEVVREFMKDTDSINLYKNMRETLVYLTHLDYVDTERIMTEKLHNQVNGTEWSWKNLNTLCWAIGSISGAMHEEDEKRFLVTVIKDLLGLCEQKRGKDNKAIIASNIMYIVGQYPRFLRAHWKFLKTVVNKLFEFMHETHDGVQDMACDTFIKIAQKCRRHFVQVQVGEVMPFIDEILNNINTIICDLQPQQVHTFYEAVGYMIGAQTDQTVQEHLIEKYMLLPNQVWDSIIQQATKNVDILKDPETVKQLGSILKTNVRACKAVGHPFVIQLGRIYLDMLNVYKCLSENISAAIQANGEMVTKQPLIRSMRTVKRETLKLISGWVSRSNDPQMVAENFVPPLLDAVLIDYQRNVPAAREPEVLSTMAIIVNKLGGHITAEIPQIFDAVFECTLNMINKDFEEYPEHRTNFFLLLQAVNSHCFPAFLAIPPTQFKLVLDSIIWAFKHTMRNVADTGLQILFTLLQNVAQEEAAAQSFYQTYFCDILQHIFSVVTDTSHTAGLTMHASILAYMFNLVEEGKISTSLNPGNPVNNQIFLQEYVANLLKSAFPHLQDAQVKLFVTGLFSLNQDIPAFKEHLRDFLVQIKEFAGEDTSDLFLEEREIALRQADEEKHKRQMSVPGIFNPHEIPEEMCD
UniProt P15682: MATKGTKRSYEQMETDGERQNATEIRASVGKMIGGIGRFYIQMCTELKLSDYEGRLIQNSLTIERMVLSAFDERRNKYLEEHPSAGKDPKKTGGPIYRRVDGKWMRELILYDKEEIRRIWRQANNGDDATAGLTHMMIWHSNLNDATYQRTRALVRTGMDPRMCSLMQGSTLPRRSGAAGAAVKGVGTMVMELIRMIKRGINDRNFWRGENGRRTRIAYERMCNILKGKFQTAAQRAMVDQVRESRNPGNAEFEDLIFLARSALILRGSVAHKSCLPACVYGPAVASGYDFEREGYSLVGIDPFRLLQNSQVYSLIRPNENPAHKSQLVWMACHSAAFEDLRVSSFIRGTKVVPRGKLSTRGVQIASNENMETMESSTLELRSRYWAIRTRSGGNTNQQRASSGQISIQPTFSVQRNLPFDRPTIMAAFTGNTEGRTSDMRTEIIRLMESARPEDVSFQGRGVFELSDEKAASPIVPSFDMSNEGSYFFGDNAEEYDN

The assay deals with FLAG-CRM1 (cellular export receptor CRM1, Chromosome Region Maintenance protein 1) (UniProt O14980). The assay is described as follows: co-IP.

No constants are given. Whether binding was seen depends on the method and setting. In cells and extracts the contact can be indirect. Some results given as binding are weak or reduced against the parent protein; the word gives no strength.

Take “nucleoprotein (NP) of influenza virus A/WSN/1933 (H1N1), wild type, expressed from pcDNA4.0/TO (from UniProt P15682 1-498)”: the binding result was “binds”.
